Experimental data from PubChem BioAssay AID1439 (NMMLSC, 2008).
The whole screen tested about 220,000 compounds, of which about 770 (0.35%) were called active. The inconclusive results got no clear call from the source; some entries with a clear call stand among them for comparison. Cut-off read from the data, not from the text of the source: active = binding response below about 49% or above about 150%; inconclusive = no clear call, values can overlap the other calls; inactive = in between.

Amino acid sequences for entries named in this document (tags omitted).
UniProt P09471, whole entry, looked up: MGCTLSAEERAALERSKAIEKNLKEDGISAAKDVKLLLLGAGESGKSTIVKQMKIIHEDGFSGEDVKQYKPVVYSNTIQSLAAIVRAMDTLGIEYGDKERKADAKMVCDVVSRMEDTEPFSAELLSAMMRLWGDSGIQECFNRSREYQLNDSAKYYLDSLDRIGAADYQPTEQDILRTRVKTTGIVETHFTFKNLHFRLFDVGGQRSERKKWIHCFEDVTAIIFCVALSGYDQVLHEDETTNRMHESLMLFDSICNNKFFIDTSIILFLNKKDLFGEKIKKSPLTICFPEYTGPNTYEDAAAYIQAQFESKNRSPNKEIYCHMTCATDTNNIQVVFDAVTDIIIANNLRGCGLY

target: Guanine nucleotide-binding protein G(o) subunit alpha (Homo sapiens) (UniProt P09471); assay: RGS7-Galphao binding modulators, primary screen, biochemical, multiplexed bead flow cytometry (AID 1439); settings: at 10 µM, actives lie on both sides;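 note: fluorescent Galphao held in activated GDP-AlF4 state binding bead-coupled RGS7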

SMILES | binding response (% of control)
COc1cc(OC)c2ccc(=O)oc2c1C(CCN1CCCC1)c1ccc2c(c1)OCO2 (stereo unspecified) | inconclusive: 107%
CCC(=O)Nc1cccc(C(=O)OC)c1 | inconclusive: 85.4%
CC[C@H](CO)Nc1nc(Nc2cccc(Cl)c2)c2ncn(C(C)C)c2n1 | inconclusive: 97.3%
Cn1c(N)c(C(=O)COC(=O)CCc2nc3ccccc3s2)c(=O)n(C)c1=O | inconclusive: 94.4%
COc1ccc(-c2cc(C(=O)Nc3ccc(C(N)=O)cc3)c3ccccc3n2)cc1OC | inconclusive: 104%
O=S(=O)(Nc1ccc(-n2cccc2)cc1)c1ccc(Cl)c(Cl)c1 | inconclusive: 62.3%
O=C1NC[C@@H](Cc2cccc3ccccc23)N(CC2(c3ccccc3)CC2)C1=O | inconclusive: 98.4%
O=C1N=c2ccccc2=C1c1sc(=O)[nH]c1O | inconclusive: 879%
NC(CC(=O)O)c1ccc(Br)cc1 (stereo unspecified) | inactive: 105%
O=c1[nH]c(-c2ccccc2Cl)nc2c1sc(=S)n2-c1ccccc1 | inconclusive: 114%
Cn1cc(P(=O)(N2CCOCC2)N2CCOCC2)cc1P(=S)(N1CCOCC1)N1CCOCC1 | inconclusive: 94.9%
COc1ccc(/C=N/NC(=O)c2cccc(NC(C)=O)c2)c(C(=O)O)c1OC | inactive: 96.1%
CCOC(=O)c1c(CN2CCN(C)CC2)n(-c2ccccc2)c2cc(Br)c(O)cc12 | inconclusive: 47.9%
NS(=O)(=O)c1ccc(CCN=C(NS(=O)(=O)c2cccs2)c2ccccc2)cc1 | inconclusive: 109%
O=C(c1[nH]ncc1-c1cccc(Br)c1)C1CO1 (stereo unspecified) | inconclusive: 130%
CC(=O)NC(Cc1ccc(O)cc1)C(=O)NN (stereo unspecified) | inconclusive: 82.7%
COC(=O)c1ccc(COc2ccc(/C=N/NC(N)=S)cc2)o1 | inconclusive: 222%
CCOC(=O)N1CCN(C(c2ccc(C)cc2)c2sc3nc(C)nn3c2O)CC1 (stereo unspecified) | inconclusive: 113%
Cc1ccc(C2(CCNC(C)c3cccs3)CCOC(C(C)C)C2)cc1 (stereo unspecified) | inconclusive: 85.9%
COc1ccccc1NC(=S)NCCc1ccc(F)cc1 | inconclusive: 123%
CCN1C(=O)/C(=C/C=C2/Sc3ccccc3N2CCO)SC1=S | inconclusive: 87.4%
CC1CCN(CCC(=O)Nc2nccs2)CC1 | inconclusive: 110%
O=Cc1cccn1-c1ccccc1 | inconclusive: 30.3%

Three of the compounds above, as tab-separated lines:
SMILES	binding response (% of control)
CCC(=O)Nc1cccc(C(=O)OC)c1	inconclusive: 85.4%
CC[C@H](CO)Nc1nc(Nc2cccc(Cl)c2)c2ncn(C(C)C)c2n1	inconclusive: 97.3%
Cn1c(N)c(C(=O)COC(=O)CCc2nc3ccccc3s2)c(=O)n(C)c1=O	inconclusive: 94.4%

More records follow:

SMILES | binding response (% of control)
O=C(O)c1ccccc1C(=O)Nc1ccc(Br)c(C(F)(F)F)c1 | inconclusive: 108%
CCN1CCN(C(=S)NC(CC(=O)c2ccccc2)c2ccccc2)CC1 (stereo unspecified) | inconclusive: -250%
Cc1ccc(OCC(=O)N(Cc2cccs2)C2CCS(=O)(=O)C2)cc1C (stereo unspecified) | inconclusive: 97.6%
CC(C)(C)C(=O)N1CCN(c2ccc([N+](=O)[O-])cc2-n2cccc2)CC1 | inconclusive: 103%
O=C(Nc1cc(S(=O)(=O)N2CCOCC2)ccc1N1CCCC1)C1COc2ccccc2O1 (stereo unspecified) | inconclusive: 100%
O=C(Nc1ncc(Cc2cccc(C(F)(F)F)c2)s1)C1CCCO1 (stereo unspecified) | inconclusive: 100%
CCOc1cnc(-c2c(-c3c(Cl)cccc3Cl)noc2C)o1 | inconclusive: 104%
CC(C)C(=O)Nc1nnc(Cc2c[nH]c3ccccc23)s1 | inconclusive: 116%
CCn1c(C)nc2cc(C(=O)NNC(=S)NC(=O)c3ccccc3)ccc21 | inactive: 101%
CC(C)[C@H](NC(=O)OC(C)(C)C)C(=O)N/N=C/c1ccc2nccnc2c1 | inconclusive: 12.5%
Cc1cccc(N2C(=O)C3C4CC(=O)C(c5ccccc54)C3C2=O)c1C (stereo unspecified) | inactive: 102%
O=C(c1ccc(Cl)c(S(=O)(=O)N2CCCCCC2)c1)N1CCCC1 | inconclusive: 191%
CC(C)(C)N(Cc1ccccc1)C(=O)CCc1ccccc1 | inconclusive: 102%
CCC(C)Nc1nc(N)c([N+](=O)[O-])c(Nc2ccccc2OC)n1 (stereo unspecified) | inconclusive: 91.5%
O=C(c1ccc(S(=O)(=O)N2CCOCC2)cc1)N1CCN(S(=O)(=O)c2ccc(Cl)s2)CC1 | inconclusive: 116%
Cc1ccccc1OCCSc1nc2ncnc(N)c2[nH]1 | inactive: 101%
COc1ccc(OCC(O)CNC(=O)c2ccccc2)cc1 (stereo unspecified) | inconclusive: 61.6%
COc1ccc(CN(C(=O)c2cc3ccccc3oc2=O)C2CCS(=O)(=O)C2)cc1 (stereo unspecified) | inconclusive: 95.7%
CC(=O)Nc1cccc(NS(=O)(=O)c2ccccc2[N+](=O)[O-])c1 | inactive: 95.4%
Cc1nn(C/C(C#N)=N\O)c(C)[n+]1N | inactive: 104%
CC(O)[C@H]1CNC(=O)C(=O)N1CC(C)(C)C (stereo partly specified) | inconclusive: 97.1%
Cc1ccc(C(C(=O)NC2CCCC2)N(Cc2cccnc2)C(=O)c2snc(C(N)=O)c2N)o1 (stereo unspecified) | inactive: 103%
O=C(OCC(=O)N1CCC(Cc2ccccc2)CC1)c1ccccc1 | inconclusive: 116%

SMILES | binding response (% of control)
CSCC[C@H](NC(=O)OC(C)(C)C)C(=O)N/N=C/c1cccc2nccnc12 | inconclusive: 98.1%
Cc1cc(C(=O)Cn2nc(C(=O)O)c3ccccc3c2=O)c(C)n1-c1cccc(C(F)(F)F)c1 | inconclusive: 85.9%
CCOC(=O)C1(C(F)(F)F)N=C(C(F)(F)F)Nc2ccccc21 (stereo unspecified) | inactive: 99.3%
C/C(=N\O)C(C)(C)Nc1ccc(F)cc1 | inconclusive: 100%
COc1ccc(CN2CCNC(=O)C2CC(=O)NCCCn2cccn2)c(OC)c1 (stereo unspecified) | inactive: 97%
CC(C)Oc1ccc(N2C(=O)c3ccccc3C2=O)cc1 | inactive: 97.3%
Cc1ccc(S(=O)(=O)NC(=O)c2ccc(-c3ccc(-c4ccccc4)cc3)o2)c(C)c1 | inactive: 108%
COCc1[nH][nH]c(=O)c1/C=N/N1CCOCC1 | inconclusive: 110%
COc1ccc(CN(C(=O)c2cc(=O)c3cc(C)cc(C)c3o2)C2CCS(=O)(=O)C2)cc1 (stereo unspecified) | inconclusive: 67.4%
CCCCCC(O)CCC(=O)NNC1=CC(=O)CC(C)(C)C1 (stereo unspecified) | inconclusive: 98%
COC(=O)C(C(=O)OC)c1ccccc1[N+](=O)[O-] | inactive: 99.7%
O=C1CC(NC(=O)C(F)(F)F)c2cc3c(cc21)OCO3 (stereo unspecified) | inactive: 101%
CCN(c1ccccc1)S(=O)(=O)c1ccc(OCC(=O)Nc2cc(C)on2)cc1 | inactive: 105%
CCC1C(=NO)C(CC)C(c2ccccc2)NC1c1ccccc1 (stereo unspecified) | inactive: 101%
Cc1nn(C)cc1C(C(=O)NC1CCCCC1)N(C(=O)Cc1cccs1)c1ccc(Cl)cc1 (stereo unspecified) | inactive: 106%
NC(=O)Cc1nc2scc(-c3ccccc3)c2c(=O)[nH]1 | inconclusive: 76.4%
Oc1ccc(Br)cc1C=Nc1ccc2c3c(cccc13)CC2 | inactive: 90.2%
Cc1c(C#N)c(=O)c(-[n+]2ccccc2)c([S-])n1-c1ccc(Cl)cc1 | inconclusive: 106%
O=C(O)c1cccc(N2C(=O)c3cccc4c(Cl)ccc(c34)C2=O)c1 | inconclusive: 98.1%
CCOc1ccc(NC(=S)NC(=O)c2c(Br)cnn2C)c([N+](=O)[O-])c1 | active: -20%
O=C(NCc1ccccn1)NC1CCCCC1 | inactive: 99%
Nc1ccc2nc3c(=O)n(CCc4ccccc4)c(=O)[nH]c3nc2c1 | inconclusive: 85.3%
O=c1[nH]nc(CNc2cccc(C(F)(F)F)c2)c2ccccc12 | inconclusive: 102%

At a glance, 2 of the compounds above.
SMILES | binding response (% of control)
COC(=O)C(C(=O)OC)c1ccccc1[N+](=O)[O-] | inactive: 99.7%
O=C1CC(NC(=O)C(F)(F)F)c2cc3c(cc21)OCO3 (stereo unspecified) | inactive: 101%

Carrying on.

SMILES | binding response (% of control)
Cc1ccc(S(=O)(=O)N(C)C)cc1NC(=O)C(C)Sc1ccccc1 (stereo unspecified) | inactive: 95.3%
CC(C)N1CCC(N2CCN(Cc3ccc4nonc4c3)CC2CCO)CC1 (stereo unspecified) | inconclusive: 207%
CC(C)COc1ccc(C/C(N)=N/n2cnnc2)cc1 | inactive: 100%
CC(C)(C)C(=O)O/N=C(\N)Cc1ccc(-c2csnn2)cc1 | inconclusive: 126%
COCCNC(=O)C(C(=O)c1ccc(F)cc1)n1cc(C)ccc1=O (stereo unspecified) | inactive: 87.8%
CC(=O)Nc1ccc(C(=O)N/C(=C\c2ccccc2)C(=O)Nc2cccc(C(=O)O)c2)cc1 | inconclusive: 118%
Cc1cc(-c2ccccc2)c2c(n1)sc1c(O)cc(=O)[nH]c12 | inconclusive: 156%
COc1ccc(-c2ccc(SCC(=O)N3CCCC3)nn2)cc1OC | inactive: 94.2%
O=C(O)Cc1ccc(Nc2cnn(C34CC5CC(CC(CC(=O)O)(C5)C3)C4)c(=O)c2Cl)cc1 | inconclusive: 48.5%
CC1=CC2=NC(=O)/C(=C\c3cccn3CCOc3cc(C)ccc3C)C(=N)N2O1 | inactive: 101%
CSc1snnc1-c1ccccc1 | inconclusive: 97.3%
O=C(Nc1ccccc1)NN1CC(=O)N(c2ccc(Cl)cc2)CC1=O | inconclusive: 84.7%
O=C(CN1CCCC1)Nc1ccc2c(c1)CCC2 | inconclusive: 76.7%
C=C(C)/C=N/NC(=S)Nc1ccc(S(=O)(=O)N2CCOCC2)cc1 | inconclusive: 68.4%
O=C(/C=C/c1ccc2ccccc2n1)c1cc(Cl)ccc1O | inconclusive: 129%
COc1ccc(NS(=O)(=O)c2cn(C)cn2)cc1 | inconclusive: 168%
Cc1ccccc1NC(=S)Nc1cccc2cnccc12 | inconclusive: 83%
Cc1cc(C(=O)COC(=O)c2ccc3c(c2)NC(=O)CS3)c(C)n1CCc1ccc(Cl)cc1 | inconclusive: 78.2%
CCS(=O)(=O)c1ccc(O)c(NC(=O)CCCC(=O)O)c1 | inconclusive: 95.8%
Cc1cc(N=Nc2ccccc2C(=O)O)c(C)c(C)c1O | inconclusive: 94%
C=CCNC(=O)c1onc(CSc2ccccn2)c1C(=O)NCC=C | inconclusive: 104%
COc1ccc(C(=O)CSc2n[nH]c(=O)[nH]c2=O)cc1 | inconclusive: 92.9%
